Results are given in words; binding and its absence hold for the method and conditions named. Binding seen in cells or lysates may run through a third protein. A yes stands for co-enrichment or nearness to the bait. Other partners may have been found. A no says only that the protein was not detected with the bait.
Tests used:
PUM2 (human) = PUM2 (human) (UniProt Q8TB72); assay: affinity purification with mass spectrometry; anti-PUM1 or anti-PUM2 co-IP from TCam-2 lysate on magnetic A/G beads, IgG control, on-bead digest, LC-MS/MS; three replicates without and three with RNase A; the text does not tell in which set a named hit was found
PUM1 (human) = PUM1 (human) (UniProt Q14671); assay: as above

Amino acid sequences for entries named in this document (tags omitted).
UniProt Q8TB72: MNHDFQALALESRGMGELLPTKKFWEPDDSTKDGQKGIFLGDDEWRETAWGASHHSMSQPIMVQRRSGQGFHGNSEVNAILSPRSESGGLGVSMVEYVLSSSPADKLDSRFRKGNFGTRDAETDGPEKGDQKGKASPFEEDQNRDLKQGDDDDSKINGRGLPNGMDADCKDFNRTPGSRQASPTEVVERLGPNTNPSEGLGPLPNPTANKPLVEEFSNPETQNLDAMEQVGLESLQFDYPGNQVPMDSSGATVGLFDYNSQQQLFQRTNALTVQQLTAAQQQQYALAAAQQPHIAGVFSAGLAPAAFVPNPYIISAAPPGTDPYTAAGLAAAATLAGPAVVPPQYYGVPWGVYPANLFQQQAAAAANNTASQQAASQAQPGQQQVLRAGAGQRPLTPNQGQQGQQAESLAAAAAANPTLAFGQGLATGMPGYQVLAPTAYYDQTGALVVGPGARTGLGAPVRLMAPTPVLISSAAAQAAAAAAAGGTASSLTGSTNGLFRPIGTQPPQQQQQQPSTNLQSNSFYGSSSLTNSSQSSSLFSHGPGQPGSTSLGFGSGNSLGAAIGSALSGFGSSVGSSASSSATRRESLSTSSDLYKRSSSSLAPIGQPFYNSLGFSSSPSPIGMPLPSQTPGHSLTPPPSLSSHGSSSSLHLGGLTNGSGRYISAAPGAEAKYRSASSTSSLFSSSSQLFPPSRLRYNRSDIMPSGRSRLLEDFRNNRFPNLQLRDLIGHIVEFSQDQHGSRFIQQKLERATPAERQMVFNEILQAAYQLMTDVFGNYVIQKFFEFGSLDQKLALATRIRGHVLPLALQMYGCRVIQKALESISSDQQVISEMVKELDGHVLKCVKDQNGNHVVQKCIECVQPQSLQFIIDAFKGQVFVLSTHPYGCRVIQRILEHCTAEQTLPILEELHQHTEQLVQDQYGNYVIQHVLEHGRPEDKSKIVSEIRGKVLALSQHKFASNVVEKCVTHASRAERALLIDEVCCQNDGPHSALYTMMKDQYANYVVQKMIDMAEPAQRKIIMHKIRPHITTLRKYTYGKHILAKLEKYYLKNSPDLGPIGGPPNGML
UniProt Q14671: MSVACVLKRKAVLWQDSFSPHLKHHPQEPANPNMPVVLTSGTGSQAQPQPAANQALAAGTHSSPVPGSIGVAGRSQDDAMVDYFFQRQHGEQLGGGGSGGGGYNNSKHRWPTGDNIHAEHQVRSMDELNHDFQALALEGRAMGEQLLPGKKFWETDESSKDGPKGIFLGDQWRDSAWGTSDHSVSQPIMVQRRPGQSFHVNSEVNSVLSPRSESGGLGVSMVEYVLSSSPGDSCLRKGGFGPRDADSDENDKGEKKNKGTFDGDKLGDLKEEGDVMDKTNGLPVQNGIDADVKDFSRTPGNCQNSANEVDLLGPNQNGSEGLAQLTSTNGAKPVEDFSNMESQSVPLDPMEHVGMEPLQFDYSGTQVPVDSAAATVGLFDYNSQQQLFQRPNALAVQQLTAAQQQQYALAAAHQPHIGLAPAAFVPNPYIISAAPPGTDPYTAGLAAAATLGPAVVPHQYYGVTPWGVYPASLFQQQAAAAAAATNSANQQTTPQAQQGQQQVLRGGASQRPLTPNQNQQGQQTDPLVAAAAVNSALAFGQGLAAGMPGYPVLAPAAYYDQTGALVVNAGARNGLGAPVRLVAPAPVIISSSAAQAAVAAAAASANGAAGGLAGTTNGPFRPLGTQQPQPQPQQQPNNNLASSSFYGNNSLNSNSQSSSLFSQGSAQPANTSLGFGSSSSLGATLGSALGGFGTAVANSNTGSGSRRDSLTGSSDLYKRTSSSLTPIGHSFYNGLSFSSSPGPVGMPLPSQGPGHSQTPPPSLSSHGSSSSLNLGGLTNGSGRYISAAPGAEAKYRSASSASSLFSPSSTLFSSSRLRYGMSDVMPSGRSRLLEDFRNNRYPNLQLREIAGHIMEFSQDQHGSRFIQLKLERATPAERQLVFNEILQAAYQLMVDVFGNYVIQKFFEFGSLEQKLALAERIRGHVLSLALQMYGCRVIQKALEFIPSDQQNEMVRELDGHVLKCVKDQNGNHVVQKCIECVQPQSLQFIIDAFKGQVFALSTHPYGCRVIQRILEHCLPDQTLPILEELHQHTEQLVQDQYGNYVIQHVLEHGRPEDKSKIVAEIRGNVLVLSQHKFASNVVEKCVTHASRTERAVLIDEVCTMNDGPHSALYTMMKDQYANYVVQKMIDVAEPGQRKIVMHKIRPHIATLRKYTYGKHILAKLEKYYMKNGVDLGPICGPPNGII
UniProt Q07955: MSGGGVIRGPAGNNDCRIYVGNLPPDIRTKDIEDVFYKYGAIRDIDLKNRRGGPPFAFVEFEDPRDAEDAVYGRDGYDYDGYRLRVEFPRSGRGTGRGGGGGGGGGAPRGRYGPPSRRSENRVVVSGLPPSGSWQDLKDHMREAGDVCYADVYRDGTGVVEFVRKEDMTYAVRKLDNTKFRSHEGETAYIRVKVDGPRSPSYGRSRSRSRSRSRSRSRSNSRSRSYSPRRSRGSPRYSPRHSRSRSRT
UniProt P35637: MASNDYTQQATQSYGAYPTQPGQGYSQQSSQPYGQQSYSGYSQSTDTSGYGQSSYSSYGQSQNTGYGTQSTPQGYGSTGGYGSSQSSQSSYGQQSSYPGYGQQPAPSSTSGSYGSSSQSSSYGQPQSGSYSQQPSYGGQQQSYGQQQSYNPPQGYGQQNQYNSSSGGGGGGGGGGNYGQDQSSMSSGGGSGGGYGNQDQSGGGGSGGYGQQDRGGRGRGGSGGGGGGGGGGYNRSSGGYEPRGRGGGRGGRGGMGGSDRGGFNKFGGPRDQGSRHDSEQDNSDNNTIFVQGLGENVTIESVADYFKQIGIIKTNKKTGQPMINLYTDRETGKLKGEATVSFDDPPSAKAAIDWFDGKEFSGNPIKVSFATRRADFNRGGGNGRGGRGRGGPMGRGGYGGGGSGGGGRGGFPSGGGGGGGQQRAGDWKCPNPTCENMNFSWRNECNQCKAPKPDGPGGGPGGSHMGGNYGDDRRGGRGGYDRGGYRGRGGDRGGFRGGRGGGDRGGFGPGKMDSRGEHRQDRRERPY
UniProt Q16630: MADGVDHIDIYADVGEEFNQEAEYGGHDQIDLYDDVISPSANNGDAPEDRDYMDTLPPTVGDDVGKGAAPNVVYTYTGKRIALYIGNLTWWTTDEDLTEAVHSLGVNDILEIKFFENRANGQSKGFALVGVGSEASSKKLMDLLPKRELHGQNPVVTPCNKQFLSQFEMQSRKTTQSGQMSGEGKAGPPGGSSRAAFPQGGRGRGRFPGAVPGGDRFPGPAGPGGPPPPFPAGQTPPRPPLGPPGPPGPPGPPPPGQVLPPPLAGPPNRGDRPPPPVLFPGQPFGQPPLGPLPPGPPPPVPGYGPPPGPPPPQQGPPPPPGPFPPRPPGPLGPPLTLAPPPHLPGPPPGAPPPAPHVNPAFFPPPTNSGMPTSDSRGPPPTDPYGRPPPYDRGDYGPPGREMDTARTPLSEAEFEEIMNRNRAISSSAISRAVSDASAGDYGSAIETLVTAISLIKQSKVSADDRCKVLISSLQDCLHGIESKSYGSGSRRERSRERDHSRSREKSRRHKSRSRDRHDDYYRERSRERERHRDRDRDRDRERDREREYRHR
UniProt P11940: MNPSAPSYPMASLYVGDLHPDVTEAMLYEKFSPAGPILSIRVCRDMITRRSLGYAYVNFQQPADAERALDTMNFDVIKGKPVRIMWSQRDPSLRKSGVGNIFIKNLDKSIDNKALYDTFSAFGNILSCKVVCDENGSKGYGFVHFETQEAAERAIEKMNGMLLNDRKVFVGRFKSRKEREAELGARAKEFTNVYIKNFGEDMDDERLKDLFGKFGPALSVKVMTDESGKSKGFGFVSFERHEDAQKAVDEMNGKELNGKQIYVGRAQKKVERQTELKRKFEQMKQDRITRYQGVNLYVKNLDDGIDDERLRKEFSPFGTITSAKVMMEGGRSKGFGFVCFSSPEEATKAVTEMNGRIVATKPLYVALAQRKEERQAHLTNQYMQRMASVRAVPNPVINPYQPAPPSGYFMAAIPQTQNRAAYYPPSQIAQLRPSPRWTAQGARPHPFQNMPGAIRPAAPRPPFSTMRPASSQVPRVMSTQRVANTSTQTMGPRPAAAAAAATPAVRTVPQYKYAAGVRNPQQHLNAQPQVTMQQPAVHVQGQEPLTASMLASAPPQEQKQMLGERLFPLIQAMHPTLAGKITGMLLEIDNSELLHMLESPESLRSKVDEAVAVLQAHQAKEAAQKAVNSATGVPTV
UniProt P67809: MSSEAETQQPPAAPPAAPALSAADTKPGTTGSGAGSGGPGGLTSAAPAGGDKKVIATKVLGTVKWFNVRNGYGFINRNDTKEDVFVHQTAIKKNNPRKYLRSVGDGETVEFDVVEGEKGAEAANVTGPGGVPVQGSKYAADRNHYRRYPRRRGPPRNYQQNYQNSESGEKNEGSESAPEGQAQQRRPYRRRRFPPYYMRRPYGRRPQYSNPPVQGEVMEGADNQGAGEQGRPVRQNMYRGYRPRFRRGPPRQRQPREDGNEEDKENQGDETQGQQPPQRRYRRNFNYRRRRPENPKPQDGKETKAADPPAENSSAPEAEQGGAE
UniProt O00425: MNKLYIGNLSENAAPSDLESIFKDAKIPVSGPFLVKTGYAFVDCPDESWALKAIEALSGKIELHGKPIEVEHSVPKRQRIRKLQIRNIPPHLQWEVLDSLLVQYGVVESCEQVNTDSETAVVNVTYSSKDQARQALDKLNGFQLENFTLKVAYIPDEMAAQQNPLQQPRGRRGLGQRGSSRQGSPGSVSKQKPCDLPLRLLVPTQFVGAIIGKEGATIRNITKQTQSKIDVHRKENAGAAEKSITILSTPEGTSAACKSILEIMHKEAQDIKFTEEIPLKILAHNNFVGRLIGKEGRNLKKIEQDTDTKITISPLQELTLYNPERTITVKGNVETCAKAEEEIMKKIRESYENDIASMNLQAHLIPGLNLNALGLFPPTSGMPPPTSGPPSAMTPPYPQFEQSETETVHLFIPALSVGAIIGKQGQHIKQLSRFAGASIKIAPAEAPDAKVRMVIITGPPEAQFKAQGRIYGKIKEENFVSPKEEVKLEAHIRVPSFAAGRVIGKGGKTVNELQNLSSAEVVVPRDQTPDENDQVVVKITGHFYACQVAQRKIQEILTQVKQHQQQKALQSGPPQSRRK
UniProt P51116: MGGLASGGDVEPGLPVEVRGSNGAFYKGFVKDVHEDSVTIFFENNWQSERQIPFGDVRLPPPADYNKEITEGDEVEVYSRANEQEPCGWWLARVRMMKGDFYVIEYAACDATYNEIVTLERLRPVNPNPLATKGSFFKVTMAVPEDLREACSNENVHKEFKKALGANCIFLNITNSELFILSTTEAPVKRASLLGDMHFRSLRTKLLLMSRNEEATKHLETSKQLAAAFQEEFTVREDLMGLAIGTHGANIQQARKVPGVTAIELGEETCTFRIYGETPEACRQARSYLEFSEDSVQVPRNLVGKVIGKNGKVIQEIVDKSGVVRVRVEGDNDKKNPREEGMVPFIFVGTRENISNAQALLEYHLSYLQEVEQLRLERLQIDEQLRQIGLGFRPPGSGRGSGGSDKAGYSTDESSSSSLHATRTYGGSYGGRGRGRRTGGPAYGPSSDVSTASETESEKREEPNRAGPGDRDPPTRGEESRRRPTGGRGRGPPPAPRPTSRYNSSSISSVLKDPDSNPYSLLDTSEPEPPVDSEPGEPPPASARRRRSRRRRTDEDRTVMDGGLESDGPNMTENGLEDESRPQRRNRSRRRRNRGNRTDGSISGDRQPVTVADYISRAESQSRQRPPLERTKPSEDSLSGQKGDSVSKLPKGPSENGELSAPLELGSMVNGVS
UniProt P26599: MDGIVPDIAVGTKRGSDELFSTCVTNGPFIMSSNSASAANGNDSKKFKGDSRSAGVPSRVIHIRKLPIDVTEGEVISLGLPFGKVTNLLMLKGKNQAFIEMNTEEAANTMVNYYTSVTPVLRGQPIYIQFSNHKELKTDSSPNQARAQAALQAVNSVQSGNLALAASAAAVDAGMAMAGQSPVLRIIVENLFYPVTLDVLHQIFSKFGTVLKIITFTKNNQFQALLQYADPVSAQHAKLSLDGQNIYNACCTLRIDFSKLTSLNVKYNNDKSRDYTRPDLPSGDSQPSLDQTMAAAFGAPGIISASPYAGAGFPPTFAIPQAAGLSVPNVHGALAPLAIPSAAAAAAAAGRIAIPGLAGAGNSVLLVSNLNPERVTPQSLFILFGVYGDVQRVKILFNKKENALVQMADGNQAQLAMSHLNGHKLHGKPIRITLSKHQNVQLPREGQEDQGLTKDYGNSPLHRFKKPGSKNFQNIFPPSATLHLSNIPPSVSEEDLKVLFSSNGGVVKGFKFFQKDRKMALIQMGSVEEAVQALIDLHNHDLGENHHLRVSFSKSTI

SRSF1 (from UniProt Q07955 1-248) was tested, and the binding (PUM2 (human)) was “binds”.

For HNRNPK (from UniProt P61978 1-463), the binding (PUM1 (human)) was “binds”.

For FUS (from UniProt P35637 1-526), the binding (PUM1 (human)) was “binds”.

With CPSF6 (from UniProt Q16630 1-551) the binding (PUM1 (human)) was “binds”.

With PABPC1 (from UniProt P11940 1-636) the binding (PUM1 (human)) was “binds” and the binding (PUM2 (human)) was “binds”.

With G3BP1 (from UniProt Q13283 1-466) the binding (PUM2 (human)) was “binds”.

YBX1 (from UniProt P67809 1-324) was tested, and the binding (PUM1 (human)) was “binds”.

For FXR1 (from UniProt P51114 1-621), the binding (PUM1 (human)) was “binds” and the binding (PUM2 (human)) was “binds”.

With RBPMS (from UniProt Q93062 1-196) the binding (PUM1 (human)) was “no binding” and the binding (PUM2 (human)) was “no binding”.

IGF2BP3 (from UniProt O00425 1-579) was tested, and the binding (PUM1 (human)) was “binds”.

For FXR2 (from UniProt P51116 1-673), the binding (PUM1 (human)) was “binds” and the binding (PUM2 (human)) was “binds”.

With PTBP1 (from UniProt P26599 1-557) the binding (PUM2 (human)) was “binds”.

B1: CPSF7 (protein, UniProt Q8N684 1-471)
chain: MSEGVDLIDIYADEEFNQDPEFNNTDQIDLYDDVLTATSQPSDDRSSSTEPPPPVRQEPSPKPNNKTPAILYTYSGLRNRRAAVYVGSFSWWTTDQQLIQVIRSIGVYDVVELKFAENRANGQSKGYAEVVVASENSVHKLLELLPGKVLNGEKVDVRPATRQNLSQFEAQARKRECVRVPRGGIPPRAHSRDSSDSADGRATPSENLVPSSARVDKPPSVLPYFNRPPSALPLMGLPPPPIPPPPPLSSSFGVPPPPPGIHYQHLMPPPPRLPPHLAVPPPGAIPPALHLNPAFFPPPNATVGPPPDTYMKASAPYNHHGSRDSGPPPSTVSEAEFEDIMKRNRAISSSAISKAVSGASAGDYSDAIETLLTAIAVIKQSRVANDERCRVLISSLKDCLHGIEAKSYSVGASGSSSRKRHRSRERSPSRSRESSRRHRDLLHNEDRHDDYFQERNREHERHRDRERDRHH
For B1, the binding (PUM1 (human)) was “binds”.

B2: LIN28A (protein, UniProt Q9H9Z2 1-209)
chain: MGSVSNQQFAGGCAKAAEEAPEEAPEDAARAADEPQLLHGAGICKWFNVRMGFGFLSMTARAGVALDPPVDVFVHQSKLHMEGFRSLKEGEAVEFTFKKSAKGLESIRVTGPGGVFCIGSERRPKGKSMQKRRSKGDRCYNCGGLDHHAKECKLPPQPKKCHFCQSISHMVASCPLKAQQGPSAQGKPTYFREEEEEIHSPTLLPEAQN
With B2 the binding (PUM1 (human)) was “binds”.

B3: CLTA (protein, UniProt P09496 1-248)
chain: MAELDPFGAPAGAPGGPALGNGVAGAGEEDPAAAFLAQQESEIAGIENDEAFAILDGGAPGPQPHGEPPGGPDAVDGVMNGEYYQESNGPTDSYAAISQVDRLQSEPESIRKWREEQMERLEALDANSRKQEAEWKEKAIKELEEWYARQDEQLQKTKANNRVADEAFYKQPFADVIGYVTNINHPCYSLEQAAEEAFVNDIDESSPGTEWERVARLCDFNPKSSKQAKDVSRMRSVLISLKQAPLVH
With B3 the binding (PUM1 (human)) was “binds”.

B4: MATR3 (protein, UniProt P43243 1-847)
chain: MSKSFQQSSLSRDSQGHGRDLSAAGIGLLAAATQSLSMPASLGRMNQGTARLASLMNLGMSSSLNQQGAHSALSSASTSSHNLQSIFNIGSRGPLPLSSQHRGDADQASNILASFGLSARDLDELSRYPEDKITPENLPQILLQLKRRRTEEGPTLSYGRDGRSATREPPYRVPRDDWEEKRHFRRDSFDDRGPSLNPVLDYDHGSRSQESGYYDRMDYEDDRLRDGERCRDDSFFGETSHNYHKFDSEYERMGRGPGPLQERSLFEKKRGAPPSSNIEDFHGLLPKGYPHLCSICDLPVHSNKEWSQHINGASHSRRCQLLLEIYPEWNPDNDTGHTMGDPFMLQQSTNPAPGILGPPPPSFHLGGPAVGPRGNLGAGNGNLQGPRHMQKGRVETSRVVHIMDFQRGKNLRYQLLQLVEPFGVISNHLILNKINEAFIEMATTEDAQAAVDYYTTTPALVFGKPVRVHLSQKYKRIKKPEGKPDQKFDQKQELGRVIHLSNLPHSGYSDSAVLKLAEPYGKIKNYILMRMKSQAFIEMETREDAMAMVDHCLKKALWFQGRCVKVDLSEKYKKLVLRIPNRGIDLLKKDKSRKRSYSPDGKESPSDKKSKTDGSQKTESSTEGKEQEEKSGEDGEKDTKDDQTEQEPNMLLESEDELLVDEEEAAALLESGSSVGDETDLANLGDVASDGKKEPSDKAVKKDGSASAAAKKKLKKVDKIEELDQENEAALENGIKNEENTEPGAESSENADDPNKDTSENADGQSDENKDDYTIPDEYRIGPYQPNVPVGIDYVIPKTGFYCKLCSLFYTNEEVAKNTHCSSLPHYQKLKKFLNKLAEERRQKKET
For B4, the binding (PUM1 (human)) was “binds” and the binding (PUM2 (human)) was “binds”.

B5: SRSF7 (protein, UniProt Q16629 1-238)
chain: MSRYGRYGGETKVYVGNLGTGAGKGELERAFSYYGPLRTVWIARNPPGFAFVEFEDPRDAEDAVRGLDGKVICGSRVRVELSTGMPRRSRFDRPPARRPFDPNDRCYECGEKGHYAYDCHRYSRRRRSRSRSRSHSRSRGRRYSRSRSRSRGRRSRSASPRRSRSISLRRSRSASLRRSRSGSIKGSRYFQSPSRSRSRSRSISRPRSSRSKSRSPSPKRSRSPSGSPRRSASPERMD
For B5, the binding (PUM2 (human)) was “binds”.

B6: HNRNPM (protein, UniProt P52272 1-730)
chain: MAAGVEAAAEVAATEIKMEEESGAPGVPSGNGAPGPKGEGERPAQNEKRKEKNIKRGGNRFEPYANPTKRYRAFITNIPFDVKWQSLKDLVKEKVGEVTYVELLMDAEGKSRGCAVVEFKMEESMKKAAEVLNKHSLSGRPLKVKEDPDGEHARRAMQKVMATTGGMGMGPGGPGMITIPPSILNNPNIPNEIIHALQAGRLGSTVFVANLDYKVGWKKLKEVFSMAGVVVRADILEDKDGKSRGIGTVTFEQSIEAVQAISMFNGQLLFDRPMHVKMDERALPKGDFFPPERPQQLPHGLGGIGMGLGPGGQPIDANHLNKGIGMGNIGPAGMGMEGIGFGINKMGGMEGPFGGGMENMGRFGSGMNMGRINEILSNALKRGEIIAKQGGGGGGGSVPGIERMGPGIDRLGGAGMERMGAGLGHGMDRVGSEIERMGLVMDRMGSVERMGSGIERMGPLGLDHMASSIERMGQTMERIGSGVERMGAGMGFGLERMAAPIDRVGQTIERMGSGVERMGPAIERMGLSMERMVPAGMGAGLERMGPVMDRMATGLERMGANNLERMGLERMGANSLERMGLERMGANSLERMGPAMGPALGAGIERMGLAMGGGGGASFDRAIEMERGNFGGSFAGSFGGAGGHAPGVARKACQIFVRNLPFDFTWKMLKDKFNECGHVLYADIKMENGKSKGCGVVKFESPEVAERACRMMNGMKLSGREIDVRIDRNA
In the case of B6, the binding (PUM2 (human)) is reported as “binds”.

B7: G3BP2 (protein, UniProt Q9UN86 1-482)
chain: MVMEKPSPLLVGREFVRQYYTLLNKAPEYLHRFYGRNSSYVHGGVDASGKPQEAVYGQNDIHHKVLSLNFSECHTKIRHVDAHATLSDGVVVQVMGLLSNSGQPERKFMQTFVLAPEGSVPNKFYVHNDMFRYEDEVFGDSEPELDEESEDEVEEEQEERQPSPEPVQENANSGYYEAHPVTNGIEEPLEESSHEPEPEPESETKTEELKPQVEEKNLEELEEKSTTPPPAEPVSLPQEPPKAFSWASVTSKNLPPSGTVSSSGIPPHVKAPVSQPRVEAKPEVQSQPPRVREQRPRERPGFPPRGPRPGRGDMEQNDSDNRRIIRYPDSHQLFVGNLPHDIDENELKEFFMSFGNVVELRINTKGVGGKLPNFGFVVFDDSEPVQRILIAKPIMFRGEVRLNVEEKKTRAARERETRGGGDDRRDIRRNDRGPGGPRGIVGGGMMRDRDGRGPPPRGGMAQKLGSGRGTGQMEGRFTGQRR
B7 was tested, and the binding (PUM2 (human)) was “binds”.

— PMC7226987
